Source: patent US20130323813, “PEPTIDES FOR THE SPECIFIC BINDING OF RNA TARGETS” (THE UNIVERSITY OF WESTERN AUSTRALIA, published 2013)

Experiments:
Test in all cases: one hybrid
[1] = biological target: T1, PUM1 PUF GR repeat 3 (Homo sapiens) (UniProt Q14671); settings: yeast three-hybrid; protein in cells; protein details: Gal4 activation domain fusion
T1 sequence: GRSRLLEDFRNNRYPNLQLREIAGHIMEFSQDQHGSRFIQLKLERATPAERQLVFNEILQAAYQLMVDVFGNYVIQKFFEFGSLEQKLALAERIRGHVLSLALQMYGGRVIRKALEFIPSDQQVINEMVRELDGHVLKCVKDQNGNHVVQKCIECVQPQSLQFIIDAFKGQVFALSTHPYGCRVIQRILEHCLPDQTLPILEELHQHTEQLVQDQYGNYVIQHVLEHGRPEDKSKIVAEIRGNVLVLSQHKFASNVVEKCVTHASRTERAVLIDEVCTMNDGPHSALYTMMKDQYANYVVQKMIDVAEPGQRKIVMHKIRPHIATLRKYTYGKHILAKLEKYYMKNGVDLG

[2] = biological target: T2, PUM1 PUF GR repeat 7 (Homo sapiens) (UniProt Q14671); settings: yeast three-hybrid; protein in cells; protein details: Gal4 activation domain fusion
T2 sequence: T1 sequence with G108C, R112Q, S254G, E258R

[3] = biological target: T3, PUM1 PUF domain wild type (NQ) (Homo sapiens) (UniProt Q14671); settings: yeast three-hybrid; 8-repeat PUF with cognate RNA; purified recombinant protein
T3 sequence: T1 sequence with G108C, R112Q

[4] = biological target: T4, PUM1 PUF SR (repeat 6 Ser12/Arg16) (Homo sapiens) (UniProt Q14671); settings: yeast three-hybrid; protein in cells; protein details: Gal4 activation domain fusion
T4 sequence: T1 sequence with G108C, R112Q, N218S, Q222R

[5] = biological target: T5, PUM1 PUF CR (repeat 6 Cys12/Arg16) (Homo sapiens) (UniProt Q14671); settings: yeast three-hybrid; purified recombinant protein
T5 sequence: T1 sequence with G108C, R112Q, N218C, Q222R

[6] = biological target: T6, PUM1 PUF GR repeat 1 (Homo sapiens) (UniProt Q14671); settings: yeast three-hybrid; protein in cells; protein details: Gal4 activation domain fusion
T6 sequence: T1 sequence with S36G, Q40R, G108C, R112Q

[7] = biological target: T7, PUM1 PUF GR repeat 8 (Homo sapiens) (UniProt Q14671); settings: yeast three-hybrid; protein in cells; protein details: Gal4 activation domain fusion
T7 sequence: T1 sequence with G108C, R112Q, N297G, Q301R

“CCGGCUAGCAAUUGUAUAUAUUAAUUUAAUAAAGCAUG [NRE]”: binds more weakly [1]; binds more weakly [2]; binds [3]. “CCGGCUAGCAAUUGUAUAUAUUAAUUUAAUAAAGCAUG [NRE]”: no binding [4]; no binding [5]; binds more weakly [6]. “CCGGCUAGCAAUUGUAUAUAUUAAUUUAAUAAAGCAUG [NRE]”: binds more weakly [7].

Where a chain is given by its changes, count along the chain named. For some of these results: No signal at the amounts used counts as a negative. Tags and fusion partners may be left off the protein sequences shown. For some of these results: Results from cells or extracts need not show a direct contact. For some of these results: The comparison behind a weaker result is the experiment's own reference, which may not be listed here. For some of these results: Construct, isoform or probe ends are uncertain for at least one entry.
